Data as given in PubChem BioAssay AID1224830 (NIAID, 2016)
Assay: 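Regulators of TLR4 signalling towards TNF-alpha in macrophage-like cells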 (primary screen). System: human THP-1 monocytic leukaemia cells, TNF dual-luciferase reporter clone, PMA-differentiated to macrophage-like cells. Reagents: siRNA pool against human genes, 50 nM. Timing: LPS for 4 h, given about 3 days after siRNA transfection. Treatment: bacterial LPS (TLR4 ligand), 10 ng/ml. Measured: 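Ratio of firefly to renilla light, scaled to the plate median and expressed as a robust z-score per replicate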. Scale: TNF reporter robust z-score: higher = stronger TNF reporter response to LPS. Call rule: 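a well is active when its z-score exceeds 2.8 or falls below -1.5; control wells carry no call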.
The deposit covers about 18,000 reagents; below is a random part of them. In the full data, about 2,900 (16%) are marked active. 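Calls are made per well; low scores hint the gene aids the LPS response, high scores that it dampens it.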 Unmarked entries are inactive. Repeated entries: four replicate wells of each siRNA pool. No sequences are given here.

gene symbol | TNF reporter robust z-score
ANKRD24 (ankyrin repeat domain 24) | 0.45
ANKRD24 (ankyrin repeat domain 24) | -0.07
ANKRD24 (ankyrin repeat domain 24) | 2.07
ANKRD24 (ankyrin repeat domain 24) | 2.34
GATAD1 (GATA zinc finger domain containing 1) | -0.85
GATAD1 (GATA zinc finger domain containing 1) | 0.43
GATAD1 (GATA zinc finger domain containing 1) | -0.43
GATAD1 (GATA zinc finger domain containing 1) | -0.69
ZNF551 (zinc finger protein 551) | -1.29
ZNF551 (zinc finger protein 551) | -1.87 (active)
ZNF551 (zinc finger protein 551) | -0.48
ZNF551 (zinc finger protein 551) | -1.6 (active)
CYP4A22 (cytochrome P450 family 4 subfamily A member 22) | 1.42
CYP4A22 (cytochrome P450 family 4 subfamily A member 22) | 0.95
CYP4A22 (cytochrome P450 family 4 subfamily A member 22) | 2.35
CYP4A22 (cytochrome P450 family 4 subfamily A member 22) | 0.55
ZNF324 (zinc finger protein 324) | 2.74
ZNF324 (zinc finger protein 324) | 3.76 (active)
ZNF324 (zinc finger protein 324) | 3.44 (active)
ZNF324 (zinc finger protein 324) | 3.7 (active)
ZNF280D (zinc finger protein 280D) | -1.06
ZNF280D (zinc finger protein 280D) | 1.06
ZNF280D (zinc finger protein 280D) | -0.38
ZNF280D (zinc finger protein 280D) | -1.02
HK3 (hexokinase 3) | -0.28
HK3 (hexokinase 3) | 0.31
HK3 (hexokinase 3) | 0.48
HK3 (hexokinase 3) | 0
SPIDR (scaffold protein involved in DNA repair) | -0.31
SPIDR (scaffold protein involved in DNA repair) | 0.61
SPIDR (scaffold protein involved in DNA repair) | 1.01
SPIDR (scaffold protein involved in DNA repair) | 1.58
ZNF408 (zinc finger protein 408) | 0.4
ZNF408 (zinc finger protein 408) | 0.14
ZNF408 (zinc finger protein 408) | -0.43
ZNF408 (zinc finger protein 408) | 0.54
ELAVL3 (ELAV like RNA binding protein 3) | -0.12
ELAVL3 (ELAV like RNA binding protein 3) | -1.67 (active)
ELAVL3 (ELAV like RNA binding protein 3) | -1.87 (active)
ELAVL3 (ELAV like RNA binding protein 3) | -1.92 (active)
ZSWIM7 (zinc finger SWIM-type containing 7) | 0.65
ZSWIM7 (zinc finger SWIM-type containing 7) | 1.84
ZSWIM7 (zinc finger SWIM-type containing 7) | 0.66
ZSWIM7 (zinc finger SWIM-type containing 7) | 0.24
COLQ | 0.67
COLQ | 0.89
COLQ | -0.58
COLQ | 1.64
PTPN7 (protein tyrosine phosphatase non-receptor type 7) | 0.12
PTPN7 (protein tyrosine phosphatase non-receptor type 7) | 0.91
PTPN7 (protein tyrosine phosphatase non-receptor type 7) | -0.21
PTPN7 (protein tyrosine phosphatase non-receptor type 7) | -0.41
LAX1 (lymphocyte transmembrane adaptor 1) | -1.01
LAX1 (lymphocyte transmembrane adaptor 1) | -0.87
LAX1 (lymphocyte transmembrane adaptor 1) | -0.23
LAX1 (lymphocyte transmembrane adaptor 1) | -0.46
KTN1 (kinectin 1) | 0.03
KTN1 (kinectin 1) | -0.48
KTN1 (kinectin 1) | -0.53
KTN1 (kinectin 1) | -0.78
MTPAP (mitochondrial poly(A) polymerase) | 0.14
MTPAP (mitochondrial poly(A) polymerase) | 1.05
MTPAP (mitochondrial poly(A) polymerase) | 0
MTPAP (mitochondrial poly(A) polymerase) | 1.13
CT47A10 (cancer/testis antigen family 47 member A10) | 2.64
CT47A10 (cancer/testis antigen family 47 member A10) | 1.51
CT47A10 (cancer/testis antigen family 47 member A10) | 1.83
CT47A10 (cancer/testis antigen family 47 member A10) | 3.98 (active)
FOXD1 (forkhead box D1) | 0.34
FOXD1 (forkhead box D1) | 0.06
FOXD1 (forkhead box D1) | -0.13
FOXD1 (forkhead box D1) | 0.04
FKBP8 (FKBP prolyl isomerase 8) | -1.06
FKBP8 (FKBP prolyl isomerase 8) | 1.27
FKBP8 (FKBP prolyl isomerase 8) | 1.88
FKBP8 (FKBP prolyl isomerase 8) | 1.18
ARAP2 (ArfGAP with RhoGAP domain, ankyrin repeat and PH domain 2) | 2.42
ARAP2 (ArfGAP with RhoGAP domain, ankyrin repeat and PH domain 2) | 2.22
ARAP2 (ArfGAP with RhoGAP domain, ankyrin repeat and PH domain 2) | 0.71
ARAP2 (ArfGAP with RhoGAP domain, ankyrin repeat and PH domain 2) | 1.21
MAT1A (methionine adenosyltransferase 1A) | 0.07
MAT1A (methionine adenosyltransferase 1A) | 1.35
MAT1A (methionine adenosyltransferase 1A) | -0.26
MAT1A (methionine adenosyltransferase 1A) | 1.92
CRADD (CARD and death domain containing adaptor protein) | 0.26
CRADD (CARD and death domain containing adaptor protein) | 0.49
CRADD (CARD and death domain containing adaptor protein) | 0.59
CRADD (CARD and death domain containing adaptor protein) | -0.85
OR6A2 (olfactory receptor family 6 subfamily A member 2) | -0.2
OR6A2 (olfactory receptor family 6 subfamily A member 2) | 0.38
OR6A2 (olfactory receptor family 6 subfamily A member 2) | 0
OR6A2 (olfactory receptor family 6 subfamily A member 2) | -0.65
LACTB (lactamase beta) | -0.42
LACTB (lactamase beta) | -0.23
LACTB (lactamase beta) | -1.52 (active)
CRKL (CRK like proto-oncogene, adaptor protein) | -0.06
CRKL (CRK like proto-oncogene, adaptor protein) | 1.19
CRKL (CRK like proto-oncogene, adaptor protein) | 0.6
CRKL (CRK like proto-oncogene, adaptor protein) | -0.23
CYP4F3 (cytochrome P450 family 4 subfamily F member 3) | 0.06
CYP4F3 (cytochrome P450 family 4 subfamily F member 3) | -0.34
CYP4F3 (cytochrome P450 family 4 subfamily F member 3) | -0.81
CYP4F3 (cytochrome P450 family 4 subfamily F member 3) | -0.13
HOXC5 (homeobox C5) | -0.35
HOXC5 (homeobox C5) | 1.81
HOXC5 (homeobox C5) | -0.3
HOXC5 (homeobox C5) | 0.43
SLC16A14 | -0.33
SLC16A14 | -0.42
SLC16A14 | -0.1
SLC16A14 | -1.2

Records above called active, once more:
gene symbol | TNF reporter robust z-score
ZNF551 (zinc finger protein 551) | -1.87 (active)
ZNF551 (zinc finger protein 551) | -1.6 (active)
ZNF324 (zinc finger protein 324) | 3.76 (active)
ZNF324 (zinc finger protein 324) | 3.44 (active)
ZNF324 (zinc finger protein 324) | 3.7 (active)
ELAVL3 (ELAV like RNA binding protein 3) | -1.67 (active)
ELAVL3 (ELAV like RNA binding protein 3) | -1.87 (active)
ELAVL3 (ELAV like RNA binding protein 3) | -1.92 (active)
CT47A10 (cancer/testis antigen family 47 member A10) | 3.98 (active)
LACTB (lactamase beta) | -1.52 (active)
